Results reported in paper PMC4173072.

Sequences of proteins named here, by UniProt entry; tags and fusion partners are left off.
UniProt G0RB08, entry or part of it: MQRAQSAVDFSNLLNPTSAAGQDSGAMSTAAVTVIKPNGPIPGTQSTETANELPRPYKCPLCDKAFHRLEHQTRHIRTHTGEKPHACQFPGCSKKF

Target: CREI-96 (truncated Carbon catabolite repressor 1, Cre1-96) (Trichoderma reesei Rut-C30) (UniProt G0RB08)
Assay: EMSA
Settings: 500, 1000, 2000 nM protein, 4 ng probe, two shifted bands; GST elution buffer, 10 min at 22 °C; non-denaturing PAGE; salt and pH not stated; recombinant …; residues 1-96; protein details: GST fusion (37 kDa), thrombin-cleaved before use; label: 6-FAM on both primers (RG89, RG90); probe letters rebuilt from the primers and the genome

“GTAGAGGCATGTTGTGAATCTGTGTCGGGCAGGACACGCCTCGAAGGTTCACGGCAAGGGAAACCACCGATAGCAGTGTCTAGTAGCAACCTGTAAAGCCGCAATGCAGCATCACTGGAAAATACAAACCAATGGCTAAAAGTACATAAGTTAATGCCTAAAGAAGTCATATACCAGCGGCTAATAATTGTACAATCAAGTGGCTAAACGTACCGTAATTTGCCAACGGCTTGTGGGGTTGCAGAAGCAACGGCAAAGCCCCACTTCCCCACGTTTGTTTCTTCACTCAGTCCAATCTCAGCTGGTGATCCCCCAATTGGGTCGCTTGTTTGTTCCGGTGAAGTGAAAGAAGACAGAGGTAAGAATGTCTGACTCGGAGCGTTTTGCATACAACC (double strand) [cbh1 URR probe (400 bp PCR product)]”: binds.
